The target of assay [1] is T1, Axl2–TAP (S. cerevisiae) (UniProt P38928).
T1 sequence: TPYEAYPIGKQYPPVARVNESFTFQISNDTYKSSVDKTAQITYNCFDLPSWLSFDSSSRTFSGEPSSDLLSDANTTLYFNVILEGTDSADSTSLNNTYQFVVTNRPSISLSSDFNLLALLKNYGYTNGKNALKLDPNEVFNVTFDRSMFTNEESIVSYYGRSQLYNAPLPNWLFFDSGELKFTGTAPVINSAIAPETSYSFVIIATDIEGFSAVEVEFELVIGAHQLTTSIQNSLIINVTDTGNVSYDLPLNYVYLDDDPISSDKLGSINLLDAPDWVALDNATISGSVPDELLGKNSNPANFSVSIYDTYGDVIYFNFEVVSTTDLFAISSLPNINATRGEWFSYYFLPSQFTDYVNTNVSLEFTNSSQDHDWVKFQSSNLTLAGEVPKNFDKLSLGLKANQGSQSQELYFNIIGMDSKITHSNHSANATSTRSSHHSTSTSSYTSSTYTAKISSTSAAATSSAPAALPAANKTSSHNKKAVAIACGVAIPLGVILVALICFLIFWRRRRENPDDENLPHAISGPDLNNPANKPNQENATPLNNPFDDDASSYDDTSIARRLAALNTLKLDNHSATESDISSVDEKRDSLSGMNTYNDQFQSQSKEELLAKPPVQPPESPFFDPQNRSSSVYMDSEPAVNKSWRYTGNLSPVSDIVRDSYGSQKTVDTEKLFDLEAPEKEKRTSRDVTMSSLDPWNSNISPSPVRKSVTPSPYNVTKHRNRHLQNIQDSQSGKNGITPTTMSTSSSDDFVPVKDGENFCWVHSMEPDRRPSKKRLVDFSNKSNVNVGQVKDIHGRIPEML
Put plainly: pull-down; as a1, in a bud4Δ mutant strain: Axl2–TAP captured on IgG-Sepharose from yeast S10 lysate, 4°C; anti-Myc immunoblot. Background: A western blot detects proteins with antibodies after separation by electrophoresis.

Sequences of proteins named here, by UniProt entry; tags and fusion partners are left off. A change or cut given only in a name is not applied to a line headed by its entry.
UniProt P19073: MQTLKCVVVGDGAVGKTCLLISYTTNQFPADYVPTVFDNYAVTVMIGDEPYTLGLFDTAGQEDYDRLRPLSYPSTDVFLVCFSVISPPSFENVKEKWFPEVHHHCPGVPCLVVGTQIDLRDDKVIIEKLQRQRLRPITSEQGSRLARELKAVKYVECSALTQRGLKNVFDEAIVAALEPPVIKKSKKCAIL

Assay [2] addresses T1, Axl2–TAP (S. cerevisiae). Put plainly: pull-down; lysates of WT or bud3Δ yeast expressing GST-CDC42 incubated with TAP–Axl2 bound IgG-Sepharose beads, 1 h at 4°C; 50 mM HEPES pH 7.6, 100 mM KCl, 1 mM EGTA, 1 mM MgCl2, 10% glycerol, 0.33% Triton X-100; anti-GST immunoblot; only the target purified.
The target in assay [3] is DBD–Cdc42^K5A (S. cerevisiae) (UniProt P19073). Put plainly: two-hybrid; AD fusions (pJG4-5) and DBD fusions (pEG202) in host strain WT (EGY48) or bud3Δ (HPY3657); LEU2 reporter, growth on SGal −Leu for 3–4 days at 30°C.
Assay [4] addresses T2, DBD–Cdc10 (S. cerevisiae) (UniProt P25342).
T2 sequence: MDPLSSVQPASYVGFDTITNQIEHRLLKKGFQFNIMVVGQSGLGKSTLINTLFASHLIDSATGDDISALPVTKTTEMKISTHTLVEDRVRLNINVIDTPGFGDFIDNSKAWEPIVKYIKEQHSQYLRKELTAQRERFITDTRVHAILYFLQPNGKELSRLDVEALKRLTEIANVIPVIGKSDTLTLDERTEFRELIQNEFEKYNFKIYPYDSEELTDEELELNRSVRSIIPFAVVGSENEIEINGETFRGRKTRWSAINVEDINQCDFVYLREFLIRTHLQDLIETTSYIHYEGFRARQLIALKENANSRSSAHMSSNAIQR
The description is as above.

Assay [5] concerns the target DBD–Cdc42 (WT) (S. cerevisiae) (UniProt P19073). Described as above.
For assay [6], the target named is DBD–Cdc42^D118A (S. cerevisiae) (UniProt P19073). The assay is described as above.
In assay [7] the target is DBD–Cdc42^G12V (S. cerevisiae) (UniProt P19073). The description is as above.
The target in assay [8] is DBD–Cdc42^G15A (S. cerevisiae) (UniProt P19073). Described as above.
The next assay addresses T3, Cdc10–VC (S. cerevisiae) (UniProt P25342).
T3 sequence: T2 sequence
Put plainly: split reporter; BiFC with VN and VC fragments of Venus in living yeast cells (haploid; diploid for Cdc10–Cdc10; WT and axl2Δ), YFP imaging at ∼24°C.

Assay [9] deals with T1, Axl2–TAP (S. cerevisiae). Put plainly: pull-down; Axl2–TAP captured on IgG-Sepharose from yeast S10 lysate, 1 h at 4°C; 50 mM HEPES pH 7.6, 300 mM KCl, 1 mM EGTA, 1 mM MgCl2, 10% glycerol, 1% Triton X-100; anti-Myc immunoblot; WT and axl1 mutant strains.

We go through seven molecules from publication PMC10617600.

No constants are given. Whether binding was seen depends on the method and setting. For some assays here: Binding seen in cells or lysates may run through a third protein. Some entries that bind do so weakly or less than the wild type. For some assays here: Where a sequence is shown, tags or fusion partners need not be part of it.

Bud3–Myc (from UniProt P25558 1-1636): in the assay with Axl2–TAP (S. cerevisiae) [1], the binding result is recorded as “binds weakly”.

GST–Cdc42 (from UniProt P19073 1-191): the binding result with Axl2–TAP (S. cerevisiae) [2] is “binds”.

B1: AD–Bud3 (domain or fragment, UniProt P25558 1-656)
chain: MEKDLSSLYSEKKDKENDETLFNIKLSKSVVETTPLNGHSLFDDDKSLSDWTDNVFTQSVFYHGSDDLIWGKFFVCVYKSPNSNKLNAIIFDKLGTSCFESVDISSNSQYYPAIENLSPSDQESNVKKCIAVILLQRYPLLSPSDLSQILSNKSENCDYDPPYAGDLASSCQLITAVPPEDLGKRFFTSGLLQNRFVSSTLLDVIYENNESTIELNNRLVFHLGEQLEQLFNPVTEYSPEQTEYGYKAPEDELPTESDDDLVKAICNELLQLQTNFTFNLVEFLQKFLIALRVRVLNEEINGLSTTKLNRLFPPTIDEVTRINCIFLDSLKTAIPYGSLEVLKACSITIPYFYKAYTRHEAATKNFSKDIKLFIRHFSNVIPEREVYTEMKIESIIKGPQEKLLKLKLIIERLWKSKKWRPKNQEMAKKCYNNIIDVIDSFGKLDSPLHSYSTRVFTPSGKILTELAKCWPVELQYKWLKRRVVGVYDVVDLNDENKRNLLVIFSDYVVFINILEAESYYTSDGSNRPLISDILMNSLINEVPLPSKIPKLKVERHCYIDEVLVSILDKSTLRFDRLKGKDSFSMVCKLSSAFISSSSVADLITKARILEKDTAFHLFKASRSHFTLYSTAHELCAYDSEKIKSKFALFLNIPPSK
With B1, the binding result in assay [3] is listed as “binds”.

B2: AD–Axl2(C) (domain or fragment, UniProt P38928 529-823)
chain: WRRRRENPDDENLPHAISGPDLNNPANKPNQENATPLNNPFDDDASSYDDTSIARRLAALNTLKLDNHSATESDISSVDEKRDSLSGMNTYNDQFQSQSKEELLAKPPVQPPESPFFDPQNRSSSVYMDSEPAVNKSWRYTGNLSPVSDIVRDSYGSQKTVDTEKLFDLEAPEKEKRTSRDVTMSSLDPWNSNISPSPVRKSVTPSPYNVTKHRNRHLQNIQDSQSGKNGITPTTMSTSSSDDFVPVKDGENFCWVHSMEPDRRPSKKRLVDFSNKSNVNVGQVKDIHGRIPEML
On to B2, for which the binding result in assay [4] was “binds”; in [5] it was “binds”; in assay [6], “no binding”; in [7], “binds”; in assay [8], “no binding”.

B3: Cdc3–VN (protein, UniProt P32457 1-520)
chain: MSLKEEQVSIKQDPEQEERQHDQFNDVQIKQESQDHDGVDSQYTNGTQNDDSERFEAAESDVKVEPGLGMGITSSQSEKGQVLPDQPEIKFIRRQINGYVGFANLPKQWHRRSIKNGFSFNLLCVGPDGIGKTTLMKTLFNNDDIEANLVKDYEEELANDQEEEEGQGEGHENQSQEQRHKVKIKSYESVIEENGVKLNLNVIDTEGFGDFLNNDQKSWDPIIKEIDSRFDQYLDAENKINRHSINDKRIHACLYFIEPTGHYLKPLDLKFMQSVYEKCNLIPVIAKSDILTDEEILSFKKTIMNQLIQSNIELFKPPIYSNDDAENSHLSERLFSSLPYAVIGSNDIVENYSGNQVRGRSYPWGVIEVDNDNHSDFNLLKNLLIKQFMEELKERTSKILYENYRSSKLAKLGIKQDNSVFKEFDPISKQQEEKTLHEAKLAKLEIEMKTVFQQKVSEKEKKLQKSETELFARHKEMKEKLTKQLKALEDKKKQLELSINSASPNVNHSPVPTKKKGFLR
In the case of B3, the binding entry in the assay with Cdc10–VC (S. cerevisiae) is given as “binds”.

B4: Cdc10–VC (protein, UniProt P25342 1-322)
chain: T2 sequence
As to B4, in the assay with Cdc10–VC (S. cerevisiae), the binding result is “binds”.

B5: Bud3ΔN–Myc (domain or fragment, UniProt P25558 260-1636)
chain: DLVKAICNELLQLQTNFTFNLVEFLQKFLIALRVRVLNEEINGLSTTKLNRLFPPTIDEVTRINCIFLDSLKTAIPYGSLEVLKACSITIPYFYKAYTRHEAATKNFSKDIKLFIRHFSNVIPEREVYTEMKIESIIKGPQEKLLKLKLIIERLWKSKKWRPKNQEMAKKCYNNIIDVIDSFGKLDSPLHSYSTRVFTPSGKILTELAKCWPVELQYKWLKRRVVGVYDVVDLNDENKRNLLVIFSDYVVFINILEAESYYTSDGSNRPLISDILMNSLINEVPLPSKIPKLKVERHCYIDEVLVSILDKSTLRFDRLKGKDSFSMVCKLSSAFISSSSVADLITKARILEKDTAFHLFKASRSHFTLYSTAHELCAYDSEKIKSKFALFLNIPPSKEILEVNNLHLAFFARFCSNDGRDNIVILDVLTKHDDKHIEVTSDNIVFTIINQLAIEIPICFSSLNSSMAKDLLCVNENLIKNLEHQLEEVKHPSTDEHRAVNSKLSGASDFDATHEKKRSYGTITTFRSYTSDLKDSPSGDNSNVTKETKEILPVKPTKKSSKKPREIQKKTKTNASKAEHIEKKKPNKGKGFFGVLKNVFGSKSKSKPSPVQRVPKKISQRHPKSPVKKPMTSEKKSSPKRAVVSSPKIKKKSTSFSTKESQTAKSSLRAVEFKSDDLIGKPPDVGNGAHPQENTRISSVVRDTKYVSYNPSQPVTENTSNEKNVEPKADQSTKQDNISNFADVEVSASSYPEKLDAETDDQIIGKATNSSSVHGNKELPDLAEVTTANRVSTTSAGDQRIDTQSEFLRAADVENLSDDDEHRQNESRVFNDDLFGDFIPKHYRNKQENINSSSNLFPEGKVPQEKGVSNENTNISLKTNEDASTLTQKLSPQASKVLTENSNELKDTNNEGKDAKDIKLGDDYSDKETAKEITKPKNFVEGITERKEIFPTIPRLAPPASKINFQRSPSYIELFQGMRVVLDKHDAHYNWKRLASQVSLSEGLKVNTEEDAAIINKSQDDAKAERMTQISEVIEYEMQQPIPTYLPKAHLDDSGIEKSDDKFFEIEEELKEELKGSKTGNEDVGNNNPSNSIPKIEKPPAFKVIRTSPVRIIGRTFEDTRKYENGSPSDISFTYDTHNNDEPDKRLMELKFPSQDEIPDDRFYTPAEEPTAEFPVEELPNTPRSINVTTSNNKSTDDKLSSGNIDQKPTELLDDLEFSSFNIAFGNTSMSTDNMKISSDLSSNKTVLGNAQKVQESPSGPLIYVLPQSSTKHEKEGFLRKKQKDEPIWVSPSKIDFADLSRRTKALTPERNTVPLKNNDSRKYKYTGEGSIGNMTNMLLTKDASYAYLKDFVALSDDEDEDGKQNCAVGGPEKLKFY
Turning to B5, the binding entry in the assay with Axl2–TAP (S. cerevisiae) [9] is “no binding”.
